In paper PMC7047201:
These are yes or no findings as the source states them, for the method shown. In cells and extracts the contact can be indirect. Some entries that bind do so weakly or less than the wild type.

By UniProt entry, the sequences of proteins in these tests, tags left out.
UniProt P25098: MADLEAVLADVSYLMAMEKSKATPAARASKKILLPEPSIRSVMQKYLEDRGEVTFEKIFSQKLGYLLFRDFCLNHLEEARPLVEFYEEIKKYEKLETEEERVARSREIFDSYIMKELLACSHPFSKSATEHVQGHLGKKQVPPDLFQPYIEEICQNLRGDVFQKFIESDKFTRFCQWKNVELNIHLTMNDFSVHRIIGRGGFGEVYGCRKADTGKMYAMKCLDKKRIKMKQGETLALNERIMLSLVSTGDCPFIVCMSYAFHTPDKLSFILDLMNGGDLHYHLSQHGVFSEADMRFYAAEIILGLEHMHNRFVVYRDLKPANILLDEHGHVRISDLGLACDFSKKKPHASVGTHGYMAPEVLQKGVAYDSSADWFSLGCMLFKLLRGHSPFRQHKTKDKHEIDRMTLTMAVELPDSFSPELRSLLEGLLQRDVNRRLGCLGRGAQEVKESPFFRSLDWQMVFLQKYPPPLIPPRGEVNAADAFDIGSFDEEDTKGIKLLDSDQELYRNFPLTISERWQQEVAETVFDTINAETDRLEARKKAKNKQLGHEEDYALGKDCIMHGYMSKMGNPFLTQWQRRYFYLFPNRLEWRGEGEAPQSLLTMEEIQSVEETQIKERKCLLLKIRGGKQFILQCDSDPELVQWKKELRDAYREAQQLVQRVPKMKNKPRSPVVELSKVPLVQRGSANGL
UniProt P63092: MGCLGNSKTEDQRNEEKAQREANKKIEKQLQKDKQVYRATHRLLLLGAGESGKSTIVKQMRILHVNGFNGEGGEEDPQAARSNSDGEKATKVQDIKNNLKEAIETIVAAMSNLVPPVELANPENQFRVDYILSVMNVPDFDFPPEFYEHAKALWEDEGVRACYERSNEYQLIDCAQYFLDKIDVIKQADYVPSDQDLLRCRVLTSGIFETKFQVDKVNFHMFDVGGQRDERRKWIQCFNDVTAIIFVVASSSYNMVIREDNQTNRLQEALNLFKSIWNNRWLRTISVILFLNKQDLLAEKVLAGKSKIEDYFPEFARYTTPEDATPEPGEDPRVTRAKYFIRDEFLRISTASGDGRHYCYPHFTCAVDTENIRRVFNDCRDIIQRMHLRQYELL

Target: G protein-coupled receptor kinase 2 (GRK2), wild type (UniProt P25098)
Test: co-IP; HEK293T cells co-transfected with β3AR, HA-Gαs and wild type GRK2, stimulated with 10 µM BRL37344; cross-linking in intact cells with 2.5 mM DSP (30 min, 25°C); lysis in RIPA buffer at 4°C; GRK2 immunoprecipitated with anti-GRK2 antibody and Protein A/G Plus-Agarose; cross-linker cleaved; co-precipitated HA-Gαs detected by anti-HA western blot

For “HA-tagged Gαs subunit (from UniProt P63092 1-394)”, the binding was “binds”.
